Results are given in words; binding and its absence hold for the method and conditions named. In cells and extracts the contact can be indirect. Some results given as binding are weak or reduced against the parent protein; the word gives no strength.
B1: PCGF6 (protein, UniProt Q99NA9 1-353)
chain: MDEAETDATENKRASEAKRASAMPPPPPPPPPISPPALIPAPAAGEEGPASLGQAGAAGCSRSRPPALEPERSLGRLRGRFEDYDEELEEEEEMEEEEEEEEEMSHFSLRLESGRADSEDEEERLINLVELTPYILCSICKGYLIDATTITECLHTFCKSCIVRHFYYSNRCPKCNIVVHQTQPLYNIRLDRQLQDIVYKLVINLEEREKKQMHDFYKERGLEVPKPAAPQPVPSSKGKTKKVLESVFRIPPELDMSLLLEFIGANEDTGHFKPLEKKFVRVSGEATIGHVEKFLRRKMGLDPACQVDIICGDHLLERYQTLREIRRAIGDTAMQDGLLVLHYGLVVSPLKIT

Sequences of proteins named here, by UniProt entry; tags and fusion partners are left off.
UniProt O54917: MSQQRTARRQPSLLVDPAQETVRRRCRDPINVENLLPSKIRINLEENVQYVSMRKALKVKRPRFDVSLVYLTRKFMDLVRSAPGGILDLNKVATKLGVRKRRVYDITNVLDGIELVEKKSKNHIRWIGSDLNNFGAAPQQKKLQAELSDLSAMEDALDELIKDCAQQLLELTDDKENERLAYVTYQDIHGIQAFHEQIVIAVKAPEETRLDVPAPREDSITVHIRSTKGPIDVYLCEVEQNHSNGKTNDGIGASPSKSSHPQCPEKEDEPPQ
UniProt P59178: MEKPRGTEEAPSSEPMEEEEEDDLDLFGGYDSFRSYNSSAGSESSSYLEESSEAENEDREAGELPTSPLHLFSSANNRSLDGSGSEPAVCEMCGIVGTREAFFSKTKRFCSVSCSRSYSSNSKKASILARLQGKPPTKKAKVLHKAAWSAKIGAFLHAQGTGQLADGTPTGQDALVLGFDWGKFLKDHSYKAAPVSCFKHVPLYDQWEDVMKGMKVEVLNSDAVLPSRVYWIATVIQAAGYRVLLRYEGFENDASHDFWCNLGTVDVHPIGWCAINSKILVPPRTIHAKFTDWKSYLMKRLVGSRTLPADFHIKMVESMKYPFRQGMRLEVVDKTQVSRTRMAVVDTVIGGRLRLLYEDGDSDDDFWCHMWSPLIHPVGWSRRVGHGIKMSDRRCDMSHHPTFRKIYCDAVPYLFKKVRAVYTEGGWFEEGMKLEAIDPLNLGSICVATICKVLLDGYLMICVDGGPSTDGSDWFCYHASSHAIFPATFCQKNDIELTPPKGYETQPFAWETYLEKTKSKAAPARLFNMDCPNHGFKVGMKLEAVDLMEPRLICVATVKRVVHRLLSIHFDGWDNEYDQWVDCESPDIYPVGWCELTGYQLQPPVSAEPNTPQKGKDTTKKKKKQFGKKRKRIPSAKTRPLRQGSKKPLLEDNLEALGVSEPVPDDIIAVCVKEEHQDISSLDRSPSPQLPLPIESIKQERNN
UniProt A2AWL7: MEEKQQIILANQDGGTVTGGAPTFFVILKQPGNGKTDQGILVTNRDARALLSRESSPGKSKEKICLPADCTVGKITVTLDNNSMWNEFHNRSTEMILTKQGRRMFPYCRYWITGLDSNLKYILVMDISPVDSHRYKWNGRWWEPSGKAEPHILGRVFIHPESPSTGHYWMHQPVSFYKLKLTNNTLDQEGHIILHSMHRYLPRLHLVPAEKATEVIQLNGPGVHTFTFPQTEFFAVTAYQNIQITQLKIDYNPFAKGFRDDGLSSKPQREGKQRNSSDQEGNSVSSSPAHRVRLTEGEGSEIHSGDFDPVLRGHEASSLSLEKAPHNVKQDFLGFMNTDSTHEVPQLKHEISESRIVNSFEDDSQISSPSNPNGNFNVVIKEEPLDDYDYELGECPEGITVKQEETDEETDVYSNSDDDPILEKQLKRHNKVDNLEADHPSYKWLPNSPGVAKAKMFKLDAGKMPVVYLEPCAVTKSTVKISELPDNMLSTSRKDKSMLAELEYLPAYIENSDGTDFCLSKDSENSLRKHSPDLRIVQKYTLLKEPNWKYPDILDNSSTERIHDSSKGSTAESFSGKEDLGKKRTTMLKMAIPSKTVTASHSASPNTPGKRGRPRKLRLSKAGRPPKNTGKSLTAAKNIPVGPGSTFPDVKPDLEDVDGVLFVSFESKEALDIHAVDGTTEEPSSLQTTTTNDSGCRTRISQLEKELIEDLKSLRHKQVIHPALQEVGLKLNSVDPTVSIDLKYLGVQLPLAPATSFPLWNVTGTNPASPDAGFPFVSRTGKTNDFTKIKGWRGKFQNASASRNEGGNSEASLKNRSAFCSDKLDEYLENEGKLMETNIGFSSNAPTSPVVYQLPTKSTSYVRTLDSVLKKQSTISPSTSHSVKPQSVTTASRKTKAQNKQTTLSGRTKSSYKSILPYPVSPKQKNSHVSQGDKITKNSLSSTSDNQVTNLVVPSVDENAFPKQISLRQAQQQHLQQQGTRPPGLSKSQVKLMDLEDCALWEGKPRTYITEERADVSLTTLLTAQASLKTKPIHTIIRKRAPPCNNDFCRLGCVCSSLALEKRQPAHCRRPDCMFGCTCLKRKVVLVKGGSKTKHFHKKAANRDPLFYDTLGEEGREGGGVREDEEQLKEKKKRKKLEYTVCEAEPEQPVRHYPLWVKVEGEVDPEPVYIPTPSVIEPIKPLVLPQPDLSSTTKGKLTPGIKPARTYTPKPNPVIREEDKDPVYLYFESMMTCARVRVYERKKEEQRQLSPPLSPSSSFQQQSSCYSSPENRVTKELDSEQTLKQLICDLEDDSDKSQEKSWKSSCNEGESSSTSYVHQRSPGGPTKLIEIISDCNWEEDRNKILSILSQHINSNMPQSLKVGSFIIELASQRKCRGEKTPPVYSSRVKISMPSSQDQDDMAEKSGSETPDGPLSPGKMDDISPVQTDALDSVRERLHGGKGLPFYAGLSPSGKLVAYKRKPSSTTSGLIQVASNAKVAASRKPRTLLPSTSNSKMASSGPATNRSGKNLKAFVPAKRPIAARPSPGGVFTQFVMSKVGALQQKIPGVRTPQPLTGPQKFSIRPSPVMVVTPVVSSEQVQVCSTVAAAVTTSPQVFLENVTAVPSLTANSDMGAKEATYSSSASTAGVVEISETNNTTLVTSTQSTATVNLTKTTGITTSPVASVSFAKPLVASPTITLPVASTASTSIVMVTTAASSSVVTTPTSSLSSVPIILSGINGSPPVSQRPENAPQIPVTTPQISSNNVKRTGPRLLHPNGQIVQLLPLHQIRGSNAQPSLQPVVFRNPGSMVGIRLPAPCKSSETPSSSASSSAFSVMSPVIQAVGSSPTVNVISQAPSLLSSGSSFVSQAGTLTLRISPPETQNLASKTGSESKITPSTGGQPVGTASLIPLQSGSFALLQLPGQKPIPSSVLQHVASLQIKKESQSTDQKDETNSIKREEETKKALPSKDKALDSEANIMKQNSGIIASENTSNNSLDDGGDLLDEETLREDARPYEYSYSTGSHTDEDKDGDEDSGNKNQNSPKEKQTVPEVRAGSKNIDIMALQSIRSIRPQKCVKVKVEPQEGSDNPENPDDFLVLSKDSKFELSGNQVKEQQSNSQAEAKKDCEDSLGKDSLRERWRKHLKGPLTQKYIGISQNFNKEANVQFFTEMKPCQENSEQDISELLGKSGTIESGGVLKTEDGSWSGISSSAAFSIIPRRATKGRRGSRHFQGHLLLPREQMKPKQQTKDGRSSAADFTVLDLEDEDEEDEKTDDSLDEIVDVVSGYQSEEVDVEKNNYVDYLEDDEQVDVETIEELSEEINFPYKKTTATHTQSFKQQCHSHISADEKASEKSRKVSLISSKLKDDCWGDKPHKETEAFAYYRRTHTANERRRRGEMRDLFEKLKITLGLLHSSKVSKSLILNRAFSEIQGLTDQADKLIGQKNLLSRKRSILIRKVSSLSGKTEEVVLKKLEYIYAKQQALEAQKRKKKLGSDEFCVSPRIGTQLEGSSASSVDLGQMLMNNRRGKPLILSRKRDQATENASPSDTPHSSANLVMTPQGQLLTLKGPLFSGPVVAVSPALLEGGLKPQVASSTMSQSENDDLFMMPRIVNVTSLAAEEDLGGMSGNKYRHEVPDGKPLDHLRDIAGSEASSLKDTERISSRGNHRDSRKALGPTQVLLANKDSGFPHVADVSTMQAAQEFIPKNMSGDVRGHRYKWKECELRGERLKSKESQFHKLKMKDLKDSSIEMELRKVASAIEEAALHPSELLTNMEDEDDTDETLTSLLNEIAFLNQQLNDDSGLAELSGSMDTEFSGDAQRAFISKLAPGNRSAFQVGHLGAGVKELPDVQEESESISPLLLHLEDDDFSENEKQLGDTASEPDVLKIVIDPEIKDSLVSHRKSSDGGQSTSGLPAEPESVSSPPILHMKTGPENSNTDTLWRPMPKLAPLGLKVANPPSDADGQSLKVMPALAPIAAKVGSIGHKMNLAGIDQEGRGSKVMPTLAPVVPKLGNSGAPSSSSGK

What follows are molecules tested against 3×HA-E2F6 (UniProt O54917) (assay: co-IP; anti-HA magnetic beads (Pierce) on 1 mg nuclear extract of E14TG2a ESCs expressing 3×HA-E2F6, overnight at 4 °C; wash 15 mM Tris pH 8, 150 mM NaCl, 0.05% Triton; western blotting; control: E14TG2a cells not expressing 3×HA-E2F6).
For L3MBTL2 (from UniProt P59178 1-703), the binding was “binds”. MGA (from UniProt A2AWL7 1-3003) was tested, and the binding was “binds”. B1 was tested, and the binding was “binds”.

Source: publication PMC8195999
